Source: the supplement of paper PMC8256030
Some of the results follow. This data set is noisy: repeats of one test often differ as much as different tests do.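 HEK293T cells were given each compound shortly before transfection with a reporter in which red mCherry is followed by the SARS-CoV-2 frameshift element and then GFP in the −1 frame, so GFP appears only after frameshifting.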

These molecules were tested on HEK293T (assay: percent viability (nuclei count) relative to control; higher = more viable cells). Conditions: 10 µM; 24 h.

In order of rising percent viability:
1. COC(=O)[C@H]1[C@H]2C[C@@H]3c4[nH]c5cc(OC)ccc5c4CCN3C[C@H]2C[C@H](OC)[C@@H]1OC [metoserpate]  66.3%
2. C#CCOC[C@H]1CO[C@](Cn2ccnc2)(c2ccc(Cl)cc2Cl)O1 [parconazole]  81.3%
3. C=C1C[C@H]2[C@@H]3C=C(C)C4=CC(=O)CC[C@]4(C)[C@H]3CC[C@]2(C)[C@@]1(OC(C)=O)C(C)=O [Melengestrol Acetate]  173%
4. NC(Cc1ccccc1)C(=O)O (stereo not drawn)  185%
5. CC1(C)S[C@@H]2[C@H](NC(=O)C(C(=O)O)c3ccccc3)C(=O)N2[C@H]1C(=O)O (stereo partly drawn)  187%
6. CC1OC2(CS1)CN1CCC2CC1 (stereo not drawn) [Evoxac]  208%
7. CC(=O)C(=Cc1cc(O)c(O)c([N+](=O)[O-])c1)C(C)=O [nitecapone]  246%
8. CN[C@H]1CC[C@@H](c2ccc(Cl)c(Cl)c2)c2ccccc21  361%
